Measurements from publication PMC7819943, “Rice protein-binding microarrays: a tool to detect cis-acting elements near promoter regions in rice”.
The other results are listed elsewhere or left out.

The sequences below were run against T1, OsSMF1 (Oryza sativa, UniProt Q6ZLB0 1-436) (assay: protein-binding microarray (RPBM); PBS, 2% BSA, 51.3 ng/ul salmon testes DNA, 50 uM zinc acetate, 200 nM TF, 25 C, 1 h; high values mean tight binding). Settings: protein: recombinant; tags: N-terminal polyhistidine and DsRed monomer fusion (pET32a); chain copies: 2; label: CyDye5-dUTP incorporated in the synthesized complementary strand; 3' TTTTT single-stranded linker to array surface; dsDNA, one strand shown.
T1 sequence: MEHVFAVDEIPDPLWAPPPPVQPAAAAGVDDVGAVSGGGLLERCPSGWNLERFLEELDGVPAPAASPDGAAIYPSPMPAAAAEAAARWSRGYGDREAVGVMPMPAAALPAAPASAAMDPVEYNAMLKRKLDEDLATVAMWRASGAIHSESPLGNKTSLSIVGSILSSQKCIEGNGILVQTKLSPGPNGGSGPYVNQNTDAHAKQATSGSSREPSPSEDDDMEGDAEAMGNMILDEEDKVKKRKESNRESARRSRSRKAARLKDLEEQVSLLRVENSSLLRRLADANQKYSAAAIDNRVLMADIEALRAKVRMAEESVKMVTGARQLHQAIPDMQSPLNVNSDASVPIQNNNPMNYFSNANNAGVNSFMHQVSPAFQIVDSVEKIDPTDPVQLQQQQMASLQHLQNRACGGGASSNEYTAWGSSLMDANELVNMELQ
Summary of the method: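 The binding signal for each feature is its fluorescence intensity in arbitrary units. An Axon 4000B scanner was used to read a custom Agilent array that had been made double-stranded with Cy5-dUTP primer extension, blocked with 2% BSA, incubated at 25 °C for 1 h with 200 nM protein in PBS, 2% BSA, salmon testes DNA and 50 µM zinc acetate, and washed. The protein was an N-terminal polyhistidine–DsRed transcription factor fusion from E. coli BL21-CodonPlus, purified on Ni–NTA.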
“GGGCTTCGTCCCCATCATCTCCTGCCACCTCAAACACCTGCGGAGTCACCTAGTGCAG” was tested, and the binding signal was 3520 fluorescence intensity (a.u.).
For “AACCGGTACAATGTAATTAAATAGTGTCACCACCTTACTACGGAGTCACCTAGTGCAG”, the binding signal was 3960 fluorescence intensity (a.u.).
For “GTGGCGGTGGTGGGAGTAGTGCGTCAGCCGCCGCCGCCGGCGGAGTCACCTAGTGCAG”, the binding signal was 5500 fluorescence intensity (a.u.).
For “CCGCCCGAGCTGGCCAGCTCGTCTCCTTCGTCATCAGCACCGGAGTCACCTAGTGCAG”, the binding signal was 5070 fluorescence intensity (a.u.).
In the case of “ACACTTAACAACGGTGTCAAGCGAAATGGCCCCATGTCATCGGAGTCACCTAGTGCAG”, the binding signal is reported as 3290 fluorescence intensity (a.u.).
With “ATGATGAAACCTCAAGCTGCATTACTTTTCCAATAGTTTGCGGAGTCACCTAGTGCAG” the binding signal was 5940 fluorescence intensity (a.u.).
With “ACAAGAAATATTCAATATTCTTGCGTCAGTACTGTAGCGGCGGAGTCACCTAGTGCAG” the binding signal was 5900 fluorescence intensity (a.u.).
In the case of “GAGCCTGCAAAGCTTTTGTTTGCAAACTATTGTCCGTGATCGGAGTCACCTAGTGCAG”, the binding signal is reported as 3200 fluorescence intensity (a.u.).
With “GACGAATTCATTAAGCATAATTAATCTGTCATTAGCAAATCGGAGTCACCTAGTGCAG” the binding signal was 3200 fluorescence intensity (a.u.).
For “TCAGGTCACACCCTCCTCTCACACATCAGCTTGTGCAAAGCGGAGTCACCTAGTGCAG”, the binding signal was 3780 fluorescence intensity (a.u.).
For “GAACGGTAGAATGATTATTGCTCCTTCAGTTTTCGAGTAACGGAGTCACCTAGTGCAG”, the binding signal was 3320 fluorescence intensity (a.u.).
With “GCCGAGCGGAGGCAGTATCCCTGCATAGATGGTTCACCCCCGGAGTCACCTAGTGCAG” the binding signal was 3480 fluorescence intensity (a.u.).
“GGTGGGGCCCACGCTCCAGCGTCCGAGCCAGCTGGCGGCACGGAGTCACCTAGTGCAG” was tested, and the binding signal was 3870 fluorescence intensity (a.u.).
In the case of “CGCCGTCGCCGTCGCCGTCGCCGCCGCGGCCAGATCCCCTCGGAGTCACCTAGTGCAG”, the binding signal is reported as 4340 fluorescence intensity (a.u.).
“AGCCCTCGATCTGGACCGTCTGTTCTGTTTACAGATCCAGCGGAGTCACCTAGTGCAG” was tested, and the binding signal was 3970 fluorescence intensity (a.u.).
For “ATGAGTAGCTCCTTGCTTGTGTGTCACTCTACCCTTTGGACGGAGTCACCTAGTGCAG”, the binding signal was 5200 fluorescence intensity (a.u.).
With “GCAGGTTGATGCATAGCTCGCGCGCACGCGCCTGTGTCCACGGAGTCACCTAGTGCAG” the binding signal was 3450 fluorescence intensity (a.u.).
With “TCTTTATAAAACCAGCGGAAAGGGATAACCATACGCCGCGCGGAGTCACCTAGTGCAG” the binding signal was 35500 fluorescence intensity (a.u.).
In the case of “CCCAGAAATGCTGGGCCGGTGCTTCGCCTGCCGCTCCGGCCGGAGTCACCTAGTGCAG”, the binding signal is reported as 13000 fluorescence intensity (a.u.).
For “AGATTTAAGAGGACGTCACGGGCCCAATCAGGCATGCGAACGGAGTCACCTAGTGCAG”, the binding signal was 5470 fluorescence intensity (a.u.).
With “TGTGTTCCCTTTCGGTACGTTGTATTTCGACCCTGACGTTCGGAGTCACCTAGTGCAG” the binding signal was 42700 fluorescence intensity (a.u.).
For “CCCCAGGATCGGTGTCCCCACACGTCAGCGATAAGTGAGGCGGAGTCACCTAGTGCAG”, the binding signal was 8620 fluorescence intensity (a.u.).
“CGCTGAGCCAGCTGCGACCGCCGACGTCGTCTGCGCCATCCGGAGTCACCTAGTGCAG” was tested, and the binding signal was 37500 fluorescence intensity (a.u.).
“CTGAAAACCGGACGCTTTGCTGCGTTAGCATCGCCATTATCGGAGTCACCTAGTGCAG” was tested, and the binding signal was 3440 fluorescence intensity (a.u.).
“CACTATACCAAATTACCAATAGTTTCACACCTCATCACTGCGGAGTCACCTAGTGCAG” was tested, and the binding signal was 3240 fluorescence intensity (a.u.).
In the case of “ATCCCTCGACAATGATGTGTCCATAGTGTCTTCATTAATACGGAGTCACCTAGTGCAG”, the binding signal is reported as 3560 fluorescence intensity (a.u.).
For “CTGAACTTTCCTTTCTTTTCATGAGTCGCCACGGTTTCGTCGGAGTCACCTAGTGCAG”, the binding signal was 3490 fluorescence intensity (a.u.).
With “ATGTTCATATGAGGATCCACACGTCAATCCACGTCTCTTCCGGAGTCACCTAGTGCAG” the binding signal was 6930 fluorescence intensity (a.u.).
In the case of “GGTAGGTTATGCATATGAAAACTATTTGAAATCTTCCACACGGAGTCACCTAGTGCAG”, the binding signal is reported as 28000 fluorescence intensity (a.u.).
With “AGCCTCCTCAAGTTGAATGCCACGTATTGCACTGTGAAAGCGGAGTCACCTAGTGCAG” the binding signal was 38800 fluorescence intensity (a.u.).
“GCCGCATCGGCCCTCGGCGCATTGCAGTTCATGACGGCGGCGGAGTCACCTAGTGCAG” was tested, and the binding signal was 4020 fluorescence intensity (a.u.).
With “AATAAATCTAAACAATGATATATCCAGATTTGTTATAGTACGGAGTCACCTAGTGCAG” the binding signal was 28300 fluorescence intensity (a.u.).
“ATTACTTGAGTCAGATCCAGAAGCATCCATCCATCCATCACGGAGTCACCTAGTGCAG” was tested, and the binding signal was 4660 fluorescence intensity (a.u.).
With “GTCGCTTTTATAAATACCTCAAACTTGGCGTACGACGCATCGGAGTCACCTAGTGCAG” the binding signal was 3210 fluorescence intensity (a.u.).
“GGGAGGGAAAGGTGGGAGGTATTTTCCTGTGTGGTCCACTCGGAGTCACCTAGTGCAG” was tested, and the binding signal was 4480 fluorescence intensity (a.u.).
“GACATGATGCACAGATCTACCTGGGTGGGTGACCACTCATCGGAGTCACCTAGTGCAG” was tested, and the binding signal was 3190 fluorescence intensity (a.u.).
For “CATGTCTATCGATGTCATAATATGTTAATTATGCCTAGATCGGAGTCACCTAGTGCAG”, the binding signal was 3810 fluorescence intensity (a.u.).
“ACAGCAGCCGCGGCTACTATAATGGTGGGAGAGACAAACTCGGAGTCACCTAGTGCAG” was tested, and the binding signal was 4290 fluorescence intensity (a.u.).
With “CTGGGTTCCATGGTCACTGCCAGGTGGGGCCCAGATTCTGCGGAGTCACCTAGTGCAG” the binding signal was 3140 fluorescence intensity (a.u.).
“GGACAGCGTCACTCCTGTTGCTAGCTAAGGACGTGGATGCCGGAGTCACCTAGTGCAG” was tested, and the binding signal was 32800 fluorescence intensity (a.u.).
In the case of “GCCTCCTGCCGTGCTTGTCCACCGGCGCCGACGACGACGACGGAGTCACCTAGTGCAG”, the binding signal is reported as 33700 fluorescence intensity (a.u.).
In the case of “GACCAAAATATCCCGCTGTCTCAGCAACGTCACGCGGCGCCGGAGTCACCTAGTGCAG”, the binding signal is reported as 3480 fluorescence intensity (a.u.).
